According to PubChem BioAssay AID256 (DTP/NCI, 2004):
The list shows only some results of the screen, not a fair sample: it gathers tests that were run many times, whatever their T/C, doses with no T/C, and many T/C values between a quarter and a half above the control. Other doses and runs of a compound stand elsewhere. T/C is the treated group as % of the vehicle group. Some doses have a count of surviving animals in place of a T/C: the source files T/C as zero there, which appears to mark a toxic dose or a test without result, not a measured value. Some doses without a T/C left all or most animals alive at the check, yet need not have been tolerated: survival well below the control is almost never listed, so the zero probably covers shortened survival too. Survivors were counted at the toxicity check, usually on the fifth day, unless a day is given; later deaths do not show. Schedule codes are those of the source, taken here to give the interval after Q, in days (D) or hours (H), and the number of doses after X. Some doses were run more than once; the results are listed from low to high. For survival time, the PubChem record calls one and a half times the control and up active, and a quarter to a half above the control has no call in these data; cut-offs in other NCI protocols can differ. Some T/C values carry the count of animals alive at the toxicity check (mostly the fifth day); where none is given, no animal had died by that day. Counts like (3×) count equal records among those shown.

System: CD2F1 mice, L1210 leukemia ip, survival T/C
Experiment: NCI In Vivo Anticancer Drug Screen. Data for tumor model L1210 Leukemia (intraperitoneal) in CD2F1 (CDF1) mice
Conditions: higher T/C = longer survival
How it was run: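 Ratio T/C, where T is the treated-group value and C the vehicle-dosed control value, from mice implanted with a transplantable tumor.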

For `CC(=O)OCC1OC(n2ncc(=O)[nH]c2=O)C(OC(C)=O)C1OC(C)=O` (centres undefined), the T/C (T/C endpoint: mean survival time, dose: 12.5 mg/kg/injection, schedule: Q01DX009 (ip), vehicle: saline) was 133 % of control [5 of 6 alive], the T/C (T/C endpoint: mean survival time, dose: 25.0 mg/kg/injection, schedule: Q01DX009 (ip), vehicle: saline) was 133 % of control and the T/C (T/C endpoint: mean survival time, dose: 50.0 mg/kg/injection, schedule: Q01DX009 (ip), vehicle: saline) was 133 % of control [5 of 6 alive]. For the same compound, the T/C (T/C endpoint: mean survival time, dose: 100.0 mg/kg/injection, schedule: Q01DX009 (ip), vehicle: saline) was 138 % of control, the T/C (T/C endpoint: mean survival time, dose: 100.0 mg/kg/injection, schedule: Q03HX024 (ip), vehicle: saline) was 134 % of control and the T/C (T/C endpoint: mean survival time, dose: 200.0 mg/kg/injection, schedule: Q01DX009 (ip), vehicle: saline) was 135 % of control. The survivor count (T/C endpoint: mean survival time, dose: 200.0 mg/kg/injection, schedule: Q03HX024 (ip), vehicle: saline) was 3 of 6, the T/C (T/C endpoint: median survival time, dose: 50.0 mg/kg/injection, schedule: Q01DX005 (ip), vehicle: saline with Tween-80) was 108, 109, 111, 112, 113 (2×), 114, 115 (2×), 120, 125 % of control and the T/C (T/C endpoint: median survival time, dose: 50.0 mg/kg/injection, schedule: Q01DX009 (ip), vehicle: saline with Tween-80) was 111, 120, 121, 134, 135, 138, 140, 144, 150, 156, 166 % of control. The T/C (T/C endpoint: median survival time, dose: 100.0 mg/kg/injection, schedule: Q01DX005 (ip), vehicle: saline with Tween-80) was 110, 111, 112, 112 [4 of 6 alive], 113, 114, 115, 117, 119, 120, 121 % of control, the T/C (T/C endpoint: median survival time, dose: 100.0 mg/kg/injection, schedule: Q01DX009 (ip), vehicle: saline with Tween-80) was 115, 127, 128, 134, 137, 141, 142 [5 of 6 alive], 150, 152, 156, 162 % of control and the T/C (T/C endpoint: median survival time, dose: 200.0 mg/kg/injection, schedule: Q01DX005 (ip), vehicle: saline with Tween-80) was 112, 114, 115, 116, 119 (2×), 121 (2×), 122, 123, 132 % of control. The T/C (T/C endpoint: median survival time, dose: 200.0 mg/kg/injection, schedule: Q01DX009 (ip), vehicle: saline with Tween-80) was 116, 127, 131, 132, 134, 134 [5 of 6 alive], 136, 141, 142, 143, 158 % of control, the T/C (T/C endpoint: median survival time, dose: 400.0 mg/kg/injection, schedule: Q01DX005 (ip), vehicle: saline with Tween-80) was 112, 114 (2×), 117, 119, 121 (2×), 123, 128, 132, 138 % of control and the T/C (T/C endpoint: median survival time, dose: 400.0 mg/kg/injection, schedule: Q01DX009 (ip), vehicle: saline with Tween-80) was 124, 126, 129, 135, 141, 142 (2×), 144 [5 of 6 alive], 150, 152, 158 % of control. For the same compound, the T/C (T/C endpoint: median survival time, dose: 800.0 mg/kg/injection, schedule: Q01DX005 (ip), vehicle: saline with Tween-80) was 114, 117 (2×), 119 [5 of 6 alive], 121, 122, 124, 125, 127 [5 of 6 alive], 129 [5 of 6 alive], 130 % of control and the T/C (T/C endpoint: median survival time, dose: 800.0 mg/kg/injection, schedule: Q01DX009 (ip), vehicle: saline with Tween-80) was 120, 125, 126, 128, 136, 137, 141, 144, 150, 155, 161 % of control.

`COc1ccc(S(=O)(=O)N/N=C/C(=O)O)cc1` was tested, and the T/C (T/C endpoint: mean survival time, dose: 25.0 mg/kg/injection, schedule: Q01DX009 (ip), vehicle: saline with Tween-80) was 131 % of control, the T/C (T/C endpoint: mean survival time, dose: 50.0 mg/kg/injection, schedule: Q04DX003 (ip), vehicle: other) was 130 and 132 % of control and the T/C (T/C endpoint: mean survival time, dose: 100.0 mg/kg/injection, schedule: Q01DX009 (ip), vehicle: alkali diluted with water) was 142 % of control. For the same compound, the T/C (T/C endpoint: mean survival time, dose: 100.0 mg/kg/injection, schedule: Q04DX003 (ip), vehicle: other) was 134 and 143 % of control, the survivor count (T/C endpoint: mean survival time, dose: 200.0 mg/kg/injection, schedule: Q01DX009 (ip), vehicle: saline with Tween-80) was 8 of 10 and the survivor count (T/C endpoint: mean survival time, dose: 400.0 mg/kg/injection, schedule: Q04DX003 (ip), vehicle: other) was 4 of 10 and 5 of 6.

`CN1CCc2cc(O)cc3c2C1Cc1ccc(O)c(O)c1-3` (centres undefined) was tested, and the T/C (T/C endpoint: mean survival time, dose: 400.0 mg/kg/injection, schedule: Q04DX003 (ip), vehicle: DMSO) was 128 % of control.

For `Cc1cc(N)nc2ccccc12`, the survivor count (T/C endpoint: mean survival time, dose: 25.0 mg/kg/injection, schedule: Q04DX002 (ip), vehicle: saline with Tween-80) was 1 of 3 and the survivor count (T/C endpoint: mean survival time, dose: 50.0 mg/kg/injection, schedule: Q04DX002 (ip), vehicle: saline with Tween-80) was 0 of 3.

With `CCCNCC(=O)O[C@]1(CC)C(=O)OCc2c1cc1n(c2=O)Cc2cc3ccccc3nc2-1` the T/C (T/C endpoint: median survival time, dose: 7.5 mg/kg/injection, schedule: Q04DX002 (ip), vehicle: saline) was 138 % of control and the T/C (T/C endpoint: median survival time, dose: 15.0 mg/kg/injection, schedule: Q04DX002 (ip), vehicle: saline) was 127 and 137 % of control.

In the case of `CC(=O)[O][Hg][c]1s[c]([Hg][O]C(C)=O)[c]([Hg][O]C(C)=O)[c]1[Hg][O]C(C)=O`, the survivor count (T/C endpoint: mean survival time, dose: 12.5 mg/kg/injection, schedule: Q04DX003 (ip), vehicle: saline with Tween-80) is reported as 3 of 6, the survivor count (T/C endpoint: mean survival time, dose: 25.0 mg/kg/injection, schedule: Q04DX003 (ip), vehicle: saline with Tween-80) is reported as 3 of 6 and the survivor count (T/C endpoint: mean survival time, dose: 50.0 mg/kg/injection, schedule: Q01DX009 (ip), vehicle: Klucel (hydroxypropylcellulose) (HPC)) is reported as 0 of 6.

For `C=CCN(CC=C)C(=O)OCC`, the survivor count (T/C endpoint: mean survival time, dose: 400.0 mg/kg/injection, schedule: Q01DX009 (ip), vehicle: saline with Tween-80) was 5 of 6.

For `CC(CCC(=O)O)C1CCC2C3CCC4CC(O)CCC4(C)C3CC(O)C12C` (centres undefined), the survivor count (T/C endpoint: mean survival time, dose: 50.0 mg/kg/injection, schedule: Q01DX001 (ip), vehicle: saline with Tween-80) was 6 of 6 and the survivor count (T/C endpoint: mean survival time, dose: 200.0 mg/kg/injection, schedule: Q01DX001 (ip), vehicle: saline with Tween-80) was 0 of 6.
